# Where “and” joins values, the source holds several entries; their conditions need not be identical. Identical values can stand only once. Counter-ions that a name gives are not always drawn. ± gives the standard deviation of the averaged measurements. The list shows a part of the results. This data set is noisy: repeats of one test often differ as much as different tests do.
# System: A549
# Assay: surface PD-L1 immunofluorescence intensity relative to IFN-gamma-only control (ratio); higher = more PD-L1 expression
# Settings: 10 µM; exposure time 24 h; IFN-gamma 100 ng/mL
row,Structure (SMILES),surface PD-L1 immunofluorescence intensity
1,O=C1[C@H](CC[C@H](O)c2ccc(F)cc2)[C@@H](c2ccc(O)cc2)N1c1ccc(F)cc1 [Ezetimibe (Zetia)],1.03
2,COc1ccccc1N1CCN(CCCCNC(=O)c2ccc3ccccc3c2)CC1,0.79
3,CCC1NC(=O)c2cc(S(N)(=O)=O)c(Cl)cc2N1 (stereo not drawn) [Quinethazone],1.03
4,"CC(O)(P(=O)(O)O)P(=O)(O)O [Etidronic acid, disodium salt]",1.08
5,CC(O)(P(=O)(O)O)P(=O)(O)O [Etidronate (Didronel)],1.04
6,COC(=O)C1=C(C)NC(C)=C(C(=O)OCC(C)C)C1c1ccccc1[N+](=O)[O-] (stereo not drawn) [Nisoldipine],0.923
7,COC(=O)C1=C(C)NC(C)=C(C(=O)OCC(C)C)C1c1ccccc1[N+](=O)[O-] (stereo not drawn) [Nisoldipine (Sular)],0.972
8,Oc1cc(O)c(Cl)cn1 [Gimeracil],0.94
9,CC1(C)CCC(C)(C)c2cc(C(=O)Nc3ccc(C(=O)O)cc3)ccc21,0.93 and 1.09
10,CC1(C)CNc2cc(NC(=O)c3cccnc3NCc3ccncc3)ccc21 [Motesanib Diphosphate],1.07
11,COC(=O)C1=C(C)NC(C)=C(C(=O)OCCN(C)Cc2ccccc2)C1c1cccc([N+](=O)[O-])c1 (stereo not drawn) [Nicardipine hydrochloride],0.881
12,OC[C@H]1O[C@@H](c2ccc(Cl)c(Cc3ccc(O[C@H]4CCOC4)cc3)c2)[C@H](O)[C@@H](O)[C@@H]1O,1.11
13,CC(=O)N1CCN(C)CC1 [1-Acetyl-4-methylpiperazine hydrochloride],1.11
14,CN1CCN(c2c(F)cc3c(=O)c(C(=O)O)cn4c3c2SCC4)CC1 [Rufloxacin],1.16
15,CCCC(=O)[O-].[Na+] [Sodium butyrate],1.01
16,CCOC(=O)C1=C(C)NC(C)=C(C(=O)OCC)C1 [Diludin],0.906
17,CNCc1cc(-c2ccccc2F)n(S(=O)(=O)c2cccnc2)c1,0.957
18,O=C1C(O)=C([C@H]2CC[C@H](c3ccc(Cl)cc3)CC2)C(=O)c2ccccc21 [Atovaquone],0.992
19,"CC(C)NCC(O)c1ccc(O)c(O)c1 (single isomer, unassigned; (-)) [(-)-Isoproterenol hydrochloride]",0.986
20,Cc1ccccc1C(OCCN(C)C)c1ccccc1 (stereo not drawn) [Orphenadrine hydrochloride],0.845
21,O=C1CCc2ccc(OCCCCN3CCN(c4cccc(Cl)c4Cl)CC3)cc2N1 [Aripiprazole],1.09
22,CCCCCCCCCCCCCCCC(=O)C(F)(F)F,0.957
23,CN(C)CCOC(c1ccc(Cl)cc1)c1ccccn1 (stereo not drawn) [Carbinoxamine maleate salt],0.942
24,Nc1nc2c(ccc3ccccc32)s1,1.03
25,NC(=O)NC1NC(=O)NC1=O (stereo not drawn) [Allantoin],0.862
26,CCCCCCCCCCCC1=C(O)C(=O)C=C(O)C1=O [Embelin],1.01
27,CN[C@@H]1[C@H](O[C@H]2[C@H](O[C@H]3[C@H](O)[C@@H](O)[C@H](NC(=N)N)[C@@H](O)[C@@H]3NC(=N)N)O[C@@H](C)[C@]2(O)CO)O[C@@H](CO)[C@H](O)[C@H]1O [Dihydrostreptomycin sulfate],0.972

row,Structure (SMILES),surface PD-L1 immunofluorescence intensity
1,NCc1ccc(S(N)(=O)=O)cc1 [Mafenide hydrochloride],0.963
2,Cc1ccccc1N=Nc1ccc(NC(=O)c2ccnn2C)c(C)c1,0.987
3,O=c1[nH]nc(Sc2ncc([N+](=O)[O-])s2)n1-c1ccc2c(c1)OCCO2,1.04 ± 0.067
4,CCN(CCCOc1ccc2c(Nc3cc(CC(=O)Nc4cccc(F)c4)[nH]n3)ncnc2c1)CCOP(=O)(O)O [Barasertib (AZD1152-HQPA)],0.987
5,c1ccc(-c2n[nH]c3c2oc2ccccc23)cc1,1.03
6,c1ccc2oc(C3=NCCN3)cc2c1 [2-BFI hydrochloride],1.04
7,CCc1oc2ccccc2c1C(=O)c1cc(Br)c(O)c(Br)c1 [Benzbromarone],0.956
8,CC/C(=C(\c1ccccc1)c1ccc(OCCN(C)C)cc1)c1ccccc1 [Tamoxifen],1.1
9,CC/C(=C(\c1ccccc1)c1ccc(OCCN(C)C)cc1)c1ccccc1 [Tamoxifen citrate],1.06 ± 0.071
10,C=C(c1ccc(C(=O)O)cc1)c1cc2c(cc1C)C(C)(C)CCC2(C)C [Bexarotene],1.08
11,CC(C)(C)NCC(O)c1cc(O)cc(O)c1 (stereo not drawn) [Terbutaline hemisulfate],0.948
12,O=C(O)CCCCC1CCSS1 (racemic) [DL-?-Lipoic acid],0.968
13,NS(=O)(=O)c1cc2c(cc1Cl)NC(CC1CCCC1)NS2(=O)=O (stereo not drawn) [Cyclopenthiazide],1
14,CC[N+](CC)(CC)CCOc1cccc(OCC[N+](CC)(CC)CC)c1OCC[N+](CC)(CC)CC [Gallamine triethiodide],0.966
15,CCOC(=O)[N-]c1c[n+](N2CCOCC2)no1 [Molsidomine],1
16,CN1CCC[C@@H]1CCO[C@](C)(c1ccccc1)c1ccc(Cl)cc1 [Clemastine fumarate],1.03 ± 0.045
17,CCOc1ccc(NC(C)=O)cc1 [Phenacetin],0.925
18,O=C(c1ccc(OCCCc2c[nH]cn2)cc1)C1CC1 [Ciproxifan],0.997
19,[O-][S+](c1ccccc1)c1ccc2nnnn2n1 (stereo not drawn),1.15
20,CC(C(=O)O)c1ccc(C(=O)c2cccs2)cc1 (stereo not drawn) [Suprofen],1.07
21,COc1cc2ncnc(Nc3ccc(F)c(Cl)c3)c2cc1OCCCN1CCOCC1 [Gefitinib],0.975
22,COc1cc2ncnc(Nc3ccc(F)c(Cl)c3)c2cc1OCCCN1CCOCC1 [Gefitinib (Iressa)],0.976
23,CN1CCN(c2nc(C3=C(c4c[nH]c5ccccc45)C(=O)NC3=O)c3ccccc3n2)CC1 [Sotrastaurin (AEB071)],1.18
24,CCCCC[C@H](O)/C=C/[C@H]1[C@H](O)CC(=O)[C@@H]1CCCCCCC(=O)O [Alprostadil (Caverject)],1.01
25,CCCCC[C@H](O)/C=C/[C@H]1[C@H](O)CC(=O)[C@@H]1CCCCCCC(=O)O [Alprostadil],1.01
26,O=C(O)c1cccnc1C(=O)O [Quinolinic acid],1.09
